Experimental data from paper PMC9950063.
These are yes or no findings as the source states them, for the method shown. Binding seen in cells or lysates may run through a third protein. Some binding calls cover weakened binding; strength is not graded here.

Target: STING-Flag (Stimulator of interferon genes, from pEF-BOS STING-Flag-His), Q86WV6
Test: co-IP; HEK-293T transfected with control siRNA (siNC) or siTRAF3, 24 h later co-transfected with cGAS and STING-Flag or control vectors for 16 h; lysates precipitated with anti-Flag beads; blot with anti-TBK1, anti-p-TBK1 (Ser172), anti-TRAF3
Conditions: remark: other sources report otherwise

B1: TANK-binding kinase 1 (TBK1, endogenous), Q9UHD2 1-729 (protein)
chain: MQSTSNHLWLLSDILGQGATANVFRGRHKKTGDLFAIKVFNNISFLRPVDVQMREFEVLKKLNHKNIVKLFAIEEETTTRHKVLIMEFCPCGSLYTVLEEPSNAYGLPESEFLIVLRDVVGGMNHLRENGIVHRDIKPGNIMRVIGEDGQSVYKLTDFGAARELEDDEQFVSLYGTEEYLHPDMYERAVLRKDHQKKYGATVDLWSIGVTFYHAATGSLPFRPFEGPRRNKEVMYKIITGKPSGAISGVQKAENGPIDWSGDMPVSCSLSRGLQVLLTPVLANILEADQEKCWGFDQFFAETSDILHRMVIHVFSLQQMTAHKIYIHSYNTATIFHELVYKQTKIISSNQELIYEGRRLVLEPGRLAQHFPKTTEENPIFVVSREPLNTIGLIYEKISLPKVHPRYDLDGDASMAKAITGVVCYACRIASTLLLYQELMRKGIRWLIELIKDDYNETVHKKTEVVITLDFCIRNIEKTVKVYEKLMKINLEAAELGEISDIHTKLLRLSSSQGTIETSLQDIDSRLSPGGSLADAWAHQEGTHPKDRNVEKLQVLLNCMTEIYYQFKKDKAERRLAYNEEQIHKFDKQKLYYHATKAMTHFTDECVKKYEAFLNKSEEWIRKMLHLRKQLLSLTNQCFDIEEEVSKYQEYTNELQETLPQKMFTASSGIKHTMTPIYPSSNTLVEMTLGMKKLKEEMEGVVKELAENNHILERFGSLTMDGGLRNVDCL
In the case of B1, the binding is reported as “binds”.
